Patent US8696867B2, “Disulfo-type fluorescent whitening agents” (Blankophor GmbH & Co. KG, priority 2009, dated 2014)

Experiment: Whitening performance in hand sheets, wood-containing pulp

SMILES | CIE whiteness (0.04 wt % FWA on dry pulp) | L* (0.04 wt % FWA on dry pulp) | a* (0.04 wt % FWA on dry pulp) | b* (0.04 wt % FWA on dry pulp) | CIE whiteness (0.08 wt % FWA on dry pulp) | L* (0.08 wt % FWA on dry pulp) | a* (0.08 wt % FWA on dry pulp) | b* (0.08 wt % FWA on dry pulp) | CIE whiteness (0.16 wt % FWA on dry pulp) | L* (0.16 wt % FWA on dry pulp) | a* (0.16 wt % FWA on dry pulp) | b* (0.16 wt % FWA on dry pulp) | CIE whiteness (0.24 wt % FWA on dry pulp) | L* (0.24 wt % FWA on dry pulp) | a* (0.24 wt % FWA on dry pulp) | b* (0.24 wt % FWA on dry pulp) | CIE whiteness (0.32 wt % FWA on dry pulp) | L* (0.32 wt % FWA on dry pulp) | a* (0.32 wt % FWA on dry pulp) | b* (0.32 wt % FWA on dry pulp)
CC(O)CN(CC(C)O)c1nc(Nc2ccc(C(=O)[O-])cc2)nc(Nc2ccc(/C=C/c3ccc(Nc4nc(Nc5ccc(C(=O)[O-])cc5)nc(N(CC(C)O)CC(C)O)n4)cc3S(=O)(=O)[O-])c(S(=O)(=O)[O-])c2)n1.[Na+].[Na+].[Na+].[Na+] (stereo not drawn) [FWA 2] | 50.86 | 93.84 | −0.10 | 7.42 | 57.77 | 94.02 | 0.17 | 6.02 | 64.23 | 94.09 | 0.33 | 4.65 | 67.19 | 94.12 | 0.36 | 4.02 | 68.76 | 94.31 | 0.35 | 3.78
O=S(=O)([O-])c1cc(Nc2nc(Nc3ccccc3)nc(N(CCO)CCO)n2)ccc1/C=C/c1ccc(Nc2nc(Nc3ccccc3)nc(N(CCO)CCO)n2)cc1S(=O)(=O)[O-].[Na+].[Na+] [Comparative 1, reference compound] | 50.01 | 93.85 | −0.11 | 7.61 | 56.60 | 94.01 | 0.16 | 6.27 | 62.58 | 94.18 | 0.26 | 5.06 | 65.75 | 94.24 | 0.30 | 4.40 | 67.23 | 94.32 | 0.29 | 4.12
O=C([O-])c1ccc(Nc2nc(Nc3ccc(/C=C/c4ccc(Nc5nc(Nc6ccc(C(=O)[O-])cc6)nc(N(CCO)CCO)n5)cc4S(=O)(=O)[O-])c(S(=O)(=O)[O-])c3)nc(N(CCO)CCO)n2)cc1.[Na+].[Na+].[Na+].[Na+] [FWA 1] | 52.12 | 93.83 | −0.08 | 7.14 | 59.30 | 94.08 | 0.22 | 5.72 | 65.61 | 94.20 | 0.30 | 4.41 | 68.43 | 94.31 | 0.22 | 3.85 | 69.74 | 94.45 | 0.18 | 3.64
